Results from article PMC7247313.
No constants are given. Whether binding was seen depends on the method and setting. Binding seen in cells or lysates may run through a third protein. Some entries that bind do so weakly or less than the wild type.

By UniProt entry, the sequences of proteins in these tests, tags left out. Where a name states a change or a piece, a line headed by the entry shows the natural chain unless it says otherwise. Chains listed by the source or under a name are the forms on record and can include a tag or linker.
UniProt P60881: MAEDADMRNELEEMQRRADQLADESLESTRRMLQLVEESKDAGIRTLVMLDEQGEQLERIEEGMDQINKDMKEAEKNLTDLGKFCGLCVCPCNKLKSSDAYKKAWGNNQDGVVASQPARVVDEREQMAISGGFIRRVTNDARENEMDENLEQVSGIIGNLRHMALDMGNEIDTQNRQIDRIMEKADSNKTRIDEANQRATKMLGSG
EGFP SNAP25b Δ(101–108) deletion mutant (P60881, form named): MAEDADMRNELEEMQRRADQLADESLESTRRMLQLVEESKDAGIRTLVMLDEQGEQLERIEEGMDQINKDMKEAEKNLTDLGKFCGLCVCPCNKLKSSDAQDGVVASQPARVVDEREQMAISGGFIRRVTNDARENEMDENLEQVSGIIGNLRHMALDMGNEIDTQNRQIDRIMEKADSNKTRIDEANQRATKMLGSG
UniProt Q8IUH5: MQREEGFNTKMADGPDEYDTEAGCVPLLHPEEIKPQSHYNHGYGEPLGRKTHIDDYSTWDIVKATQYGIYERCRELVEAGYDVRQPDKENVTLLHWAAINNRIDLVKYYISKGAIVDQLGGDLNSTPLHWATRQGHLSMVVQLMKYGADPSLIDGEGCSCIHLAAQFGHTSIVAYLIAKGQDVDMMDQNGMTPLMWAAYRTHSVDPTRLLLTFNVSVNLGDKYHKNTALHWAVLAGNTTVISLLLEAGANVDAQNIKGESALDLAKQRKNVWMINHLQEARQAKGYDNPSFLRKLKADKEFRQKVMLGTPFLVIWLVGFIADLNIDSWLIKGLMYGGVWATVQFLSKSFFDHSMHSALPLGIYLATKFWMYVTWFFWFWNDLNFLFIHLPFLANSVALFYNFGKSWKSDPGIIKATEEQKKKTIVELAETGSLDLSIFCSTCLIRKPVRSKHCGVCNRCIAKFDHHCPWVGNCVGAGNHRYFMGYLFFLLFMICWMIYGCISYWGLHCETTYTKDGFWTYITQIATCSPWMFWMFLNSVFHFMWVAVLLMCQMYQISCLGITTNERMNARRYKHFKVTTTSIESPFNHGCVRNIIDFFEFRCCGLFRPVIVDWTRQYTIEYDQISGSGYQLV

Tests used:
Assay in all cases: co-IP; HEK293T cells co-transfected with EGFP-SNAP25 constructs and HA-zDHHC17; lysed in PBS, 0.5% Triton X-100, adjusted to 0.2% Triton X-100; GFP-Trap-agarose beads, 4 °C, 1 h; blots with anti-GFP and anti-HA
[1] = biological target: EGFP SNAP25b Δ(101–108) deletion mutant (rat) (UniProt P60881)
GFP SNAP25b P117G (rat) = GFP SNAP25b P117G (rat) (UniProt P60881)
EGFP SNAP25b WT (rat) = EGFP SNAP25b WT (rat) (UniProt P60881)

Substance: HA zDHHC17 (from UniProt Q8IUH5 1-632) (enzyme)
- binding [1]: binds
- binding (GFP SNAP25b P117G (rat)): no binding
- binding (EGFP SNAP25b WT (rat)): binds
